Reference: patent US20240101685A1, “NEAR INFRARED PHOTOIMMUNOTHERAPY (NIR-PIT) COMBINATION THERAPY TO TREAT CANCER” (THE UNITED STATES OF AMERICA, as represented by the …, priority 2021, published 2024)

Test: In vivo ligand release of alb-IR700 after NIR light exposure
Parameters: species or system athymic nude mice
Conditions: alb-IR700 50 μg i.v.; L-NaAA 80 mg or L-cysteine 10.5 mg via tail vein 2 minutes before NIR 20 J cm^-2

SMILES | 700 nm fluorescence after NIR light exposure of alb-IR700
N[C@@H](CS)C(=O)O [L-cysteine] | no obvious changes in fluorescence
O=C1O[C@H]([C@@H](O)CO)C([O-])=C1O.[Na+] [L-NaAA, L-sodium ascorbate] | fluorescence was significantly decreased compared to the condition without L-NaAA
